MIC data for one compound are collected here from ChEMBL document CHEMBL4619716, “Machine Learning in Mass Spectrometry: A MALDI-TOF MS Approach to Phenotypic Antibacterial Screening” (2020).

SMILES strings stand for the structures. ≈ marks a conversion by molar mass, not a printed value.

The experiment relates to Escherichia coli. In words: Antimicrobial activity against Escherichia coli ATCC 25922 by CLSI and EUCAST protocol based assay. It counts as functional.

Turning to `CN[C@H](CC(C)C)C(=O)N[C@H]1C(=O)N[C@@H](CC(N)=O)C(=O)N[C@H]2C(=O)N[C@H]3C(=O)N[C@H](C(=O)N[C@H](C(=O)O)c4cc(O)cc(O)c4-c4cc3ccc4O)[C@H](O)c3ccc(c(Cl)c3)Oc3cc2cc(c3O[C@@H]2O[C@H](CO)[C@@H](O)[C@H](O)[C@H]2O[C@H]2C[C@](C)(N)[C@H](O)[C@H](C)O2)Oc2ccc(cc2Cl)[C@H]1O` [VANCOMYCIN], it took 256 µg/mL (≈ 177 µM) to inhibit growth (MIC).
